Source: patent US20220096517A1, “MicroRNA Compounds and Methods for Modulating MIR-10B Activity” (Regulus Therapeutics Inc., priority 2018, published 2022)
The name of at least one read-out is uncertain. In the oligonucleotide strings, read from the 5' end, every base follows the letter of its sugar. An asterisk marks phosphorothioate; unmarked linkages are phosphodiester. Other units and linkages are bracketed, terminal groups are in braces. A string of capitals states the bases alone. e = 2'-O-(2-methoxyethyl) (MOE); [5mC] = 5-methylcytosine

Test system: LN229 cells
Assay: caspase 3/7 activity (Caspase-Glo 3/7), LN229 cells
Assay type: cell-based, human
Conditions: RNAiMAX transfection, 48 hours, read-out: LN229 caspase 3 activation assay IC50

For “5′-CACAAATTCGGTTCTACAGGGTA-3′ (antisense e[5mC]*eA*e[5mC]*eA*eA*eA*eT*eT*e[5mC]*eG*eG*eT*eT*e[5mC]*eT*eA*e[5mC]*eA*eG*eG*eG*eT*eA) [RG384124, research tool compound; each nucleoside 2′-O-methoxyethyl, each C 5-methylcytosine, each linkage phosphorothioate]”, the IC50 was 85.1 nM.
